The text below walks through data of article PMC12040169 (PLOS Biology, 2025).

The list shows a part of the results.

This experiment has as its system T1, CTL2-GFP (C. trachomatis L2/434/Bu, GFP-expressing).
T1 construct: L2/434/Bu, GFP-expressing
On the set-up: species or system HeLa; Intracellular C. trachomatis growth in HeLa cells, bulk GFP fluorescence relative to DMSO. Particulars: bulk GFP, single well; 28.5 h, 10 µM; inhibitor.
For `Cc1noc(C)c1C(=O)N1CCCCCC1c1ccn(C)n1` (stereo not shown) [CBK284917], the “% of control remaining” value amounted to 118.629%.
The figure for `O=C(C(c1ccccc1)c1ccccc1)N1CCN(c2ncccn2)CC1` [CBK144504] is 108.183%; for `CCOC(=O)c1c(CN(C)C)n(-c2ccccc2)c2cc(Br)c(O)cc12` [CBK261309C] it is 115.015%.
In the case of `NC(=O)[C@@H]1C[C@@H](O)[C@H](O)[C@H]2[C@@H]1N(c1ccc(Cl)cc1)C(=S)N2Cc1cccs1` [CBK288930], the “% of control remaining” value came to 136.37%.
The figure for `COCCNC(=O)c1cc(-c2cccc(N(C)C)c2)cnc1NCC1CC1` [CBK076288] is 100%.
In the case of `Cc1ccn2c(=O)cc(COC(=O)c3sc4nc(C)cc(C)c4c3N)nc2c1` [CBK297783], the “% of control remaining” value worked out at 118.949%.
Take `O=C(O)CCC(=O)c1c[nH]c2ccccc12` [CBK261275]: the “% of control remaining” value amounted to 98.4146%.
In the case of `Cc1nn(C)cc1-c1cncn1C(C)Cc1c(C)nn(C)c1C` (stereo not shown) [CBK281786], the “% of control remaining” value is listed as 103.808%.
To `CS(=O)(=O)N(CC(=O)N1CCN(Cc2ccc3c(c2)OCO3)CC1)c1cccc(C(F)(F)F)c1` [CBK265329] belongs 105.26%.
The figure for `c1cc(OCCN2CCCC2)c2cc[nH]c2c1` [CBK083478] is 128.466%.
To `CC(C)(C)NC(=O)NC1CCC2(CC1)CC(=O)c1ccccc1O2` (stereo not shown) [CBK283390] belongs 68.2039%; to `CC1Cc2ccccc2N1CCNC(=O)Cc1cn2ccsc2n1` (stereo not shown) [CBK306499], 126.756%; to `CN(C)C(=O)C1(Cc2ccccc2-c2cccnc2)CCN(Cc2ccccc2)CC1` [CBK285522], 128.345%.
Consider `O=C(COc1ccc(Cl)cc1)NCCc1ccc(S(=O)(=O)NC(=O)NC2CCCCC2)cc1` [CBK013261], for which the “% of control remaining” value stood at 137.994%.
The figure for `Cc1cc(C(=O)NCCn2nc(C)c(C)c2C)c2cccc(C)c2n1` [CBK281388] is 92.4803%.
Consider `COc1ccc(NC(=O)c2ccc(-c3ccc(Nc4ccc5c(c4)OCCO5)nc3)cc2)cc1` [CBK036815], for which the “% of control remaining” value is 146.017%.
In the case of `Cc1csc(C(Cc2ccsc2)NC(=O)c2ccc(=O)[nH]c2)n1` (stereo not shown) [CBK285109], the “% of control remaining” value amounted to 112.577%.
To `COc1ccnc(N2CCCN(CCN3CCOCC3)CC2)n1` [CBK084120] belongs 85.5631%; to `COc1ccc(-c2cc3cccnc3n2CC(=O)NC(C)C)cc1` [CBK285380], 138.18%; to `O=S(=O)(Cc1cccc(F)c1F)c1cc2c(N3CCNCC3)nccc2s1` [CBK045690C], 124.457%.
As for `O=c1c2ccsc2ncn1Cc1nnc(-c2ccc(Br)o2)o1` [CBK295642], the “% of control remaining” value was 144.216%.
Turning to `c1ccc(CCNc2cncc(-c3cccs3)n2)nc1` [CBK065510], the “% of control remaining” value came to 158.165%.
Turning to `Cc1nc2c(C(=O)N3CCOCC3)cnn2c(C)c1Cc1ccccc1` [CBK162201], the “% of control remaining” value stood at 112.358%.
The figure for `O=C(O)CCCCn1c2c(c3ccccc31)CCCC2` [CBK000253] is 106.729%.
To `CC1CCN(Cc2ccc(-c3cn(CC(=O)NCc4ccc(OC(F)(F)F)c(F)c4)nn3)cc2)CC1` [CBK167536] belongs 129.249%.
For `O=C(O)/C(=C\c1ccc(Cl)cc1)NC(=O)c1ccccc1I` [CBK265701], the “% of control remaining” value is listed as 119.94%.
On to `COc1ccccc1CN(C)C(C)=O` [CBK024120], for which the “% of control remaining” value worked out at 93.6701%.
The figure for `NS(=O)(=O)c1ccc(NC(=O)c2cc([N+](=O)[O-])ccc2N2CCOCC2)cc1` [CBK268972] is 146.686%; for `Cc1ccc(C2(O)CC3CCC(C2)N3C(=O)C2CCC2)cc1` (stereo not shown) [CBK103860] it is 103.39%; for `C#CCNC(=O)c1nn(Cc2ccc(CN3C(=O)CCC3=O)cc2)c2ccc(OC)cc12` [CBK048668] it is 130.098%.
To `COc1cncc(-c2ccc(Nc3ccc(OC)nc3)nc2)c1` [CBK037773] belongs 200.034%; to `Cc1nc2c(c(=O)[nH]1)CN(C(=O)Cc1c(F)cccc1Cl)CC2` [CBK283589], 131.53%.
Take `CC(NC(=O)Cc1ccccc1F)c1nc2cccnc2n1C(C)C` (stereo not shown) [CBK283829]: the “% of control remaining” value came out at 123.398%.
As for `COC(=O)c1cscc1NC(=O)c1cnc(-c2cccc(C)c2)c(-c2ccc(C(C)=O)s2)c1` [CBK036760], the “% of control remaining” value was found to be 133.988%.
To `CN(CC(=O)NCc1ccccc1OC1CCNC1)C(=O)c1ccccc1` (stereo not shown) [CBK028298T] belongs 100%.
As for `CC1(Cn2ccnc2-c2ccccc2C(=O)O)CCCO1` (stereo not shown) [CBK307439], the “% of control remaining” value is 111.061%.
Consider `NS(=O)(=O)c1ccc(CNC(=O)C2(c3ccccc3)CCCC2)cc1` [CBK161523], for which the “% of control remaining” value was found to be 111.821%.
In the case of `CN1CCC[C@H]1C(=O)N1CCN(c2ncccn2)CC1` [CBK144528], the “% of control remaining” value amounted to 113.878%.
The figure for `CN(CC(=O)Nc1ccccc1N1CCCC1)Cc1cnn(Cc2ccccc2)c1` [CBK295187] is 142.019%; for `COc1ccc(C(C)C)cc1-c1cnc2[nH]c(=O)n([C@@H](CO)C(C)C)c2n1` [CBK064495] it is 109.097%; for `Nc1nonc1C(=O)NCCNc1ccc([N+](=O)[O-])cc1` [CBK262577] it is 100%.
To `CC1CCN(C(=O)CN2C(=O)N3CCN=C3c3ccccc32)CC1` [CBK283946] belongs 138.661%.
Take `C[C@H](NC(=O)N1CCN(C(=O)CCCc2c[nH]c3ccccc23)CC1)C(=O)O` [CBK286749]: the “% of control remaining” value was 115.578%.
The figure for `CC(=O)Nc1ccc(-c2nnc(SCc3c(Cl)cccc3[N+](=O)[O-])n2C)cc1` [CBK265823] is 123.138%.
Consider `COCCNC(=O)c1cc(-c2ccccc2)cnc1N(C)S(C)(=O)=O` [CBK076484], for which the “% of control remaining” value came out at 107.79%.
Consider `COC(=O)CC1C(=O)NCCN1C(=S)NC(=O)c1ccc(-c2ccccc2)cc1` (stereo not shown) [CBK268711], for which the “% of control remaining” value turned out to be 165.745%.
As for `Cc1ccc(CNC(=O)Cn2nnc(-c3ccc(CN4CC(C)OC(C)C4)cc3)n2)cc1` (stereo not shown) [CBK144554C], the “% of control remaining” value is 99.2327%.
As for `O=C(O)CCN1CCN(c2ccc(F)cc2)CC1` [CBK287262], the “% of control remaining” value came out at 151.931%.
For `O=C(CCCn1ccnc1)N1CCc2[nH]c3ccccc3c2C1` [CBK281872], the “% of control remaining” value was 140.65%.
For `O=C(CSc1nnc(-c2ccccc2)n1-c1ccc(Cl)cc1)NCc1ccco1` [CBK266637], the “% of control remaining” value is 163.113%.
On to `Cc1nc(Nc2ccc(Cl)cc2)nc(Oc2ccccc2)n1` [CBK003915], for which the “% of control remaining” value stood at 72.8595%.
To `COc1cc([N+](=O)[O-])ccc1NC(=O)CCN1C(=O)C2C3CCC(C3)C2C1=O` (stereo not shown) [CBK265141] belongs 134.699%.
For the molecule `O=c1[nH]nc2c3c4c(sc3ncn12)CCCC4` [CBK284235], the “% of control remaining” value was found to be 125.794%.
To `NC(=O)CC1C(=O)N(c2ccc(F)cc2)C(=O)N1NC(=O)CCc1ccccc1` (stereo not shown) [CBK269033] belongs 58.7639%; to `COC(=O)C1=C(C)N=c2s/c(=C/c3ccc(OC)c(OC(C)=O)c3)c(=O)n2C1c1cccs1` (stereo not shown) [CBK077753], 113.718%.
With `COc1ccc2[nH]cc(CCNC(=O)c3ccc4[nH]c(=O)[nH]c4c3)c2c1` [CBK122721], the “% of control remaining” value is 112.366%.
To `O=C(CSc1nc2sc3c(c2c(=O)n1Cc1ccco1)CCC3)NCc1ccco1` [CBK268499] belongs 132.538%.
To `Nc1nnnn1/N=C/c1cc(Cl)cc(Cl)c1OCc1ccc(Cl)cc1Cl` [CBK263853] belongs 98.2354%; to `CSc1cccc(NC(=O)Nc2ccc3c(c2)OCCO3)c1` [CBK300527], 120.402%.
The figure for `CCOCCCNC(=O)/C(=C/c1cccnc1)NC(=O)c1ccccc1` [CBK126866] is 107.005%; for `O=C1NCCNC(=O)C2(C/C=C/COc3ccccc31)CCN(C(=O)CCC1CCCC1)CC2` [CBK291995] it is 87.1173%.
In the case of `O=C1NC2(CCc3ccccc31)CCN(C(=O)c1cccnc1)C2` (stereo not shown) [CBK283335], the “% of control remaining” value is 128.534%.
Regarding `CCc1ccc2[nH]c3nc(NN)nnc3c2c1` [CBK262734], the “% of control remaining” value is listed as 101.359%.
To `CCC1CCCCN1S(=O)(=O)c1ccc(-n2ncc(Cl)c(Cl)c2=O)cc1` (stereo not shown) [CBK305038] belongs 49.0843%; to `O=C(NCCn1c(-c2ccncc2)nc2ccccc21)c1ccc(F)c(F)c1` [CBK288577], 105.744%.
With `CC(C)(C)OC(=O)N1CCN(S(=O)(=O)c2ccc(Cl)c([N+](=O)[O-])c2)CC1` [CBK003165], the “% of control remaining” value turned out to be 68.951%.
For the molecule `O=C(CCc1ccc(F)cc1)N1CCC(c2cccc(Cc3ccccc3)n2)CC1` [CBK286511], the “% of control remaining” value is 122.558%.
For `Cc1cc(C(=O)N2CCC(c3nc(C)n4c(C)csc34)CC2)on1` [CBK285247], the “% of control remaining” value was 159.214%.
For `CN(C)CCNC(=O)c1cc(-c2ccc(Cl)cc2)on1` [CBK116711T], the “% of control remaining” value is reported as 181.326%.
With `OC(CNc1cccc2ccccc12)Cn1c2ccc(Br)cc2c2cc(Br)ccc21` (stereo not shown) [CBK261420], the “% of control remaining” value came to 69.256%.
The figure for `COc1cc(NC(=O)CN2CCc3c(c(CO)nn3C)C2)cc(OC)c1` [CBK306841] is 112.451%; for `CCN(CCO)C(=O)c1coc(COc2ccc3sc(C)nc3c2)n1` [CBK307321] it is 121.101%; for `CC(C)NC(=O)N[C@H]1CCN2C(=O)c3cc(-c4ccc(F)cc4F)ccc3NC(=O)[C@H]12` [CBK289346] it is 121.41%.
As to `OC(COc1ccc(OC(F)(F)F)cc1)CN1CCN(c2nc3ccc(Cl)cc3s2)CC1` (stereo not shown) [CBK074639], the “% of control remaining” value worked out at 76.069%.
To `CC(=O)N(C)[C@H]1CC[C@]2(CC1)CNC(=O)c1cc(C)ccc1O2` [CBK281690] belongs 93.3671%.
The figure for `COc1ccc([C@@]23CC[C@@H](NC(=O)c4ccc(SC(F)(F)F)cc4)C[C@@H]2N(C)CC3)cc1OC` [CBK076654T] is 99.982%.
